Source: ChEMBL document CHEMBL3988442, “University of Dundee, Small-Polar-MMV Screening Library” (2021).

Sequences of proteins named here, by UniProt entry; tags and fusion partners are left off.
UniProt E9BF75, entry or part of it: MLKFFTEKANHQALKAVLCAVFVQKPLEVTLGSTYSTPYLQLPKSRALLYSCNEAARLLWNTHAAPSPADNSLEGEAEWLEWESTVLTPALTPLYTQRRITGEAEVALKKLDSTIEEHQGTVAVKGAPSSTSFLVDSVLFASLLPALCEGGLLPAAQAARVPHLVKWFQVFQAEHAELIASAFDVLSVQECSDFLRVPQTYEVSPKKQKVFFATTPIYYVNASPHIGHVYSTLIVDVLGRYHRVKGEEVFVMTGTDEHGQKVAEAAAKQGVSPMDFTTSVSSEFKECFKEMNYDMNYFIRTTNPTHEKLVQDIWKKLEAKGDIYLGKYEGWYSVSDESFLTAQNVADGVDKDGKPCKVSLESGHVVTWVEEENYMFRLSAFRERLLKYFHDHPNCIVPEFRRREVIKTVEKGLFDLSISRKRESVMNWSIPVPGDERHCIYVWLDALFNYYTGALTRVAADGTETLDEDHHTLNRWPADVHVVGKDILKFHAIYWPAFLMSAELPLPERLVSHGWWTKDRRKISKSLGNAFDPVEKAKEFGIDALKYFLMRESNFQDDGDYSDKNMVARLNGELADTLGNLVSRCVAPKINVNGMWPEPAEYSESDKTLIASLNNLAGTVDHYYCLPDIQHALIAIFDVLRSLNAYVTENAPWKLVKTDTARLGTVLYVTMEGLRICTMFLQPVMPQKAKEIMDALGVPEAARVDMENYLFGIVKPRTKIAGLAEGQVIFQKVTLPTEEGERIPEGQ

Results are percentages, as filed.
The controls that fix the scale are not given in the record; negative values are as filed.
The compounds are a random part of those screened.

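Methionyl-tRNA synthetase (putative), Leishmania donovani (UniProt E9BF75). Primary screen of methionyl-tRNA synthetase; the read-out is not stated. The test concentration is not given. The values are filed as inhibition. Size under these conditions: about 68,000 compounds, about 24 of them at 50% or above in at least one test.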

Compound,inhibition
Cn1cnnc1CN1CCC2(CCCN(C3CCCC3)C2=O)C1 (stereo not drawn),14.11%
O=S(=O)(C1CC1)N1CCC2(CC1)COC(COc1cccnc1)C2 (stereo not drawn),8.029%
COCCN1CCN(C(=O)C2CC=CC2)Cc2cccnc21,12.97%
COc1ccccc1OC1CN(C(=O)c2ccccc2C(C)=O)C1,7.988%
CN(C)c1ncnc2c1CCN(S(=O)(=O)c1ccccc1C(F)(F)F)C2,0.2545%
CCNC(=O)[C@@H]1C[C@H](NC(=O)Cc2ccsc2)CN1Cc1ccc(C)o1,15.56%
Cc1ccc(C(NC(=O)CN2CCc3cncnc3C2)C2CC2)cc1 (stereo not drawn),18.9%
CCOCC(=O)N(C)Cc1nc(C(F)(F)F)cs1,13.47%
NC(=O)C1CCN(C(=O)NCc2ccccc2-n2cccn2)C1 (stereo not drawn),17.63%
COc1nc2c(cc1C(=O)NCCc1nc3c(s1)CCC3)CCC2,-4.416%
CCCOCCN1CCc2[nH]c(-c3ccccc3)nc2C1,8.219%
Cc1ccccc1C(=O)N1CCC2(CCCN2CCN(C)C)CC1,7.372%
COCCN(Cc1sccc1C)C(=O)COc1cccnc1,7.062%
CN1CCN(C(=O)CCn2ncc3ccccc32)CC(C(N)=O)C1 (stereo not drawn),12.21%
COCC1c2nnn(CC3CC3)c2CCN1C(=O)c1ccnnc1 (stereo not drawn),12.27%
CNc1[nH]nc(N)c1C(=O)Nc1ccc(OC)cc1,8.499%
O=C(c1ncn2c1CNS(=O)(=O)c1ccccc1-2)N1CCOCC1,10.8%
O=C(Nc1cccn(Cc2ccc(F)cc2)c1=O)c1cnc[nH]1,13.58%
Cc1nc([C@@H]2C[C@@H]3CCN(C(=O)c4ccnnc4)C[C@H]3O2)sc1C,20.59%
CC(C)c1nnc2sc(CC3CN(C(C)C)CCO3)nn12 (stereo not drawn),13.76%
Cc1cc(C(=O)NCCN2CCCCC2)nn1C(C)(C)C,14.24%
CC(=O)Nc1nc(C(=O)N2CCCC(n3cncn3)C2)cs1 (stereo not drawn),13.68%
CC(C)NC(=O)N1CCCn2cnc(CN3CCCC3=O)c2C1,5.076%
CC(C)Nc1ccc2nc(C3CCN(C(C)C)CC3)nn2c1,12.38%
COC(=O)[C@@H]1CN(C(=O)NC(C)C)CCN1S(=O)(=O)c1ccccc1,13.19%
CC(Cn1cncn1)NCCN1CCc2ccccc2C1 (stereo not drawn),7.379%
CCN(CC)C1CCN(C(=O)c2cc3cc(C)cc(C)c3nc2C)CC1,10.59%
CN(C)S(=O)(=O)c1ccc(CN2CCCC2c2ccsc2)o1 (stereo not drawn),12.01%
Clc1ccc(CN(CCN2CCOCC2)Cc2cccnc2)c(Cl)c1,15.82%
Cn1nccc1C(=O)N1CCCC2(CCN(c3ccsc3)C2=O)C1 (stereo not drawn),2.055%
CN(C)C(=O)N1CCN(c2ccc3ccc(C(=O)NC4CC4)cn23)CC1,20.17%
CC/C=C(/C)C(=O)NCc1ccc(OC)nc1,15.19%
Cc1cc(C(=O)NC(C)CC(=O)c2ccco2)[nH]n1 (stereo not drawn),7.563%
CNC(=O)C(C)(C)N1CCC[C@H]1C(=O)NC(C)(C)C,-3.297%
COc1cc(C)c(-c2ccc(F)c3c2OC(CN)C3)cc1C (stereo not drawn),23.47%
Cc1c(C(=O)N2CCOCC2)nnn1-c1ccc2ncccc2c1,16.25%
CN(C)c1ccc(CCCNC(=O)NCC(O)c2ccsc2)cc1 (stereo not drawn),4.326%
c1csc(CNCC2COCc3c(-c4ccsc4)nnn3C2)n1 (stereo not drawn),19.61%
CN(C)S(=O)(=O)c1ccc(CNc2ccc(Cl)cn2)cc1,9.946%
O=C(C1CCCC1)N1CCO[C@H]2[C@H](OCC3CCOCC3)CC[C@@H]21,-2.594%
COc1cccc(CC(=O)N2CCc3ncnc(NC(C)C)c3CC2)c1,9.764%
Cc1cccc(NC(=O)c2csc(NCC(C)C)n2)n1,13.15%
O=C1CN(C(=O)c2cc3c(F)cc(Br)cc3[nH]2)CCN1,12.47%
Cc1cnn(C2CCCN(C(=O)c3ccn(C)c(=O)c3)C2)c1 (stereo not drawn),13.89%
CC(C)COc1ccccc1C(N)CC(C)C (stereo not drawn),9.966%
O=C1CO[C@H]2CN(Cc3cccc(F)c3F)C[C@@H]2N1C1CCOCC1,3.226%
O=C(CC[C@@H]1CCCN2CCCC[C@H]12)N1CCC(c2nnc[nH]2)CC1,9.254%
O=C(NS(=O)(=O)c1ccc2c(c1)CCC2)C1COCCO1 (stereo not drawn),3.901%
NC(=O)CN1CCCN(C(=O)COc2cccc(F)c2)CC1,12.13%
COc1ccc(CC(=O)N(C)Cc2nnc3ccccn23)cc1,11.11%
CN1CC(=O)N(c2ccccc2)CC12CCN(CCO)C2 (stereo not drawn),11.25%
Nc1ncc(C(=O)N2CCN(c3nccs3)CC2)cc1Cl,10.08%
CC(C)N(Cc1cccc(Cl)c1)Cc1nnsc1Cl,18.16%
CC(C)CN1CCC(N2CCC(C(=O)N(C)C)CC2)CC1,13.74%
COC(=O)c1c(Cl)c(C)nc2onc(C)c12,18.82%
COC(=O)C(C)(C)NC(=O)C1CC(=O)N(CC(F)(F)F)C1 (stereo not drawn),18.4%
CC(=O)Nc1nc(CN2CCCC2c2cnn(C)c2)cs1 (stereo not drawn),13.62%
O=C(NCCNc1ncccn1)NCc1cccc(OC(F)F)c1,9.756%
CCN1CC2(CC1=O)CN(C(=O)c1ccoc1)CCN(C(=O)N(C)C)C2 (stereo not drawn),18.12%
O=c1[nH]cnc2[nH]c(N3CCOCC3)nc12,9.474%
Cc1nonc1CN1CC[C@@](O)(C2CCC2)[C@H](C)C1,12.99%
CC(C)N1CCCC2(CCN(C(=O)COCC(F)(F)C(F)F)C2)C1=O (stereo not drawn),11.62%
CCn1c(C)nnc1CN(C)C1CCN(CCS(=O)(=O)CC)C1 (stereo not drawn),19.89%
O=C(c1cccc(-c2ccc(F)cc2)c1)N1CCCC(O)(CO)CC1 (stereo not drawn),-12.28%

Repeated from the top, 6 entries:

Cn1cnnc1CN1CCC2(CCCN(C3CCCC3)C2=O)C1 (stereo not drawn) read 14.11%.
O=S(=O)(C1CC1)N1CCC2(CC1)COC(COc1cccnc1)C2 (stereo not drawn) read 8.029%.
COCCN1CCN(C(=O)C2CC=CC2)Cc2cccnc21 read 12.97%.
COc1ccccc1OC1CN(C(=O)c2ccccc2C(C)=O)C1 read 7.988%.
CN(C)c1ncnc2c1CCN(S(=O)(=O)c1ccccc1C(F)(F)F)C2 read 0.2545%.
CCNC(=O)[C@@H]1C[C@H](NC(=O)Cc2ccsc2)CN1Cc1ccc(C)o1 read 15.56%.